In the assay the target is EV71 virus (Enterovirus 71). The assay can be described thus: preliminary investigations (ELISA and BLI on EV71-VLP). (In an ELISA, binding on a coated surface is turned into a signal by an enzyme label.)

Results are given in words; binding and its absence hold for the method and conditions named. Binding calls can cover weak binding; strength is not graded here.

B1: chimeric D5 antibody (antibody, V domains shown)
VH: EVQLQQSGAELVKPGASVKLSCTASGFNIKDTYIHWVKQRPEQGLEWIGKIDPANGNTKYDPKFQDKATITADTSSNTAYLQLSSLTSEDTAVYYCANSNYWFDFDYWGQGTTLTVSS
VL: DVLMTQTPLSLPVSLGDQASISCRSSQSIVHSNGNTYLEWYLQKPGQSPKLLIYKVSNRFSGVPDRFSGSGSGTDFTLKISRVEADDVGVYYCYQGSHVPYTFGGGTKLEIK
Regarding B1, the binding entry is given as “binds”.

These data come from patent publication US20200317753A1.
